Results taken from paper PMC6092398, “Revealing circadian mechanisms of integration and resilience by visualizing clock proteins working in real time” (Nature Communications, 2018).
No constants are given. Whether binding was seen depends on the method and setting.

Sequences of proteins named here, by UniProt entry; tags and fusion partners are left off. Residues count along the entry.
UniProt P02769, residues 25-607: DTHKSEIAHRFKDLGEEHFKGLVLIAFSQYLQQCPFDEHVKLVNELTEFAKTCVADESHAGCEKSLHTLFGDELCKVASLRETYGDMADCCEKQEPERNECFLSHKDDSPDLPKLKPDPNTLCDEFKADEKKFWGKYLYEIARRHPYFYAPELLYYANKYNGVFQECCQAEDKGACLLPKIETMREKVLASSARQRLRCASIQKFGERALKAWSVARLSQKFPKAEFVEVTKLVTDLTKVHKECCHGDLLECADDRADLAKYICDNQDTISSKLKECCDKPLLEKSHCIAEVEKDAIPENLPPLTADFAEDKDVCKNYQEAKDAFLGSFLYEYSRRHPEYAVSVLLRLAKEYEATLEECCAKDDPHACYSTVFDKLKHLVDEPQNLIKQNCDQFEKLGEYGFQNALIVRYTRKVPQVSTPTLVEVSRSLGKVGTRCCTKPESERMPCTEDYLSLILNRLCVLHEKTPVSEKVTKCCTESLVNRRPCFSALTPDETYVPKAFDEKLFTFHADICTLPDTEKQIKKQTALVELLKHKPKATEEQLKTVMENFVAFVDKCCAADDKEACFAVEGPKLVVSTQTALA

T1: native wild-type KaiC hexamer (KaiC^WT) (S. elongatus) (UniProt Q79PF4)
T1 sequence: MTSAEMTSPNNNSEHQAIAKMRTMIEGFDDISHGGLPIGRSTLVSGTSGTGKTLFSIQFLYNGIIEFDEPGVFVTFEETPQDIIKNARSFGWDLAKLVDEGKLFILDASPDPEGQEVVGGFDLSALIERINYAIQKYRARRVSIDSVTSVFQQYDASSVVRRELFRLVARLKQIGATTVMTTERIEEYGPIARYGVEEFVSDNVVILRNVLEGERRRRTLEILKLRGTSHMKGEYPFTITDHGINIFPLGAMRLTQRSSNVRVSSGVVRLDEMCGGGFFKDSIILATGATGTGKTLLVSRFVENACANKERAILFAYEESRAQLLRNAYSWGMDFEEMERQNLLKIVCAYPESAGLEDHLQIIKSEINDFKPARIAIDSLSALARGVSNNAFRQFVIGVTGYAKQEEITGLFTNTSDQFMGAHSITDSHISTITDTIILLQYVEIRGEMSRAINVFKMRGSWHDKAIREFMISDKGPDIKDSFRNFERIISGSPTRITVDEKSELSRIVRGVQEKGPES


Key:
[1] = molecular target: T1, native wild-type KaiC hexamer (KaiC^WT) (S. elongatus); test: high-speed atomic force microscopy (HS-AFM); BSA or GFP instead of KaiA with KaiC^WT hexamers (Supplementary Fig. 3); surface and concentrations not told in the text shown; both purified
[2] = molecular target: T1, native wild-type KaiC hexamer (KaiC^WT) (S. elongatus); test: condition: only KaiC^WT on bare mica, CI end up, C-terminal tentacles unavailable; high-speed atomic force microscopy (HS-AFM); KaiC hexamers immobilised on bare mica (CI end up, C-terminal side attached to the mica), KaiA added to the observation buffer; 20 mM Tris-HCl pH 8.0, 5 mM MgCl2, no ATP, 25-28 °C (Fig. 1a, c); both purified

binding [1]	binding [2]	Molecule
no binding	–	bovine serum albumin (BSA) (from UniProt P02769 25-607)
–	no binding	KaiA (natural protein, S. elongatus, UniProt Q79PF6 1-284, looked up, circadian clock protein KaiA of Synechococcus elongatus, native (unmutated); also called native KaiA; KaiA dimer; source: E. coli BL21 or DH5α, pGEX-based construct, purified (glutathione-agarose, HRV3C cleavage on the column, Q Sepharose); not shown: GST, N-terminal, cleaved) MLSQIAICIWVESTAILQDCQRALSADRYQLQVCESGEMLLEYAQTHRDQIDCLILVAANPSFRAVVQQLCFEGVVVPAIVVGDRDSEDPDEPAKEQLYHSAELHLGIHQLEQLPYQVDAALAEFLRLAPVETMADHIMLMGANHDPELSSQQRDLAQRLQERLGYLGVYYKRDPDRFLRNLPAYESQKLHQAMQTSYREIVLSYFSPNSNLNQSIDNFVNMAFFADVPVTKVVEIHMELMDEFAKKLRVEGRSEDILLDYRLTLIDVIAHLCEMYRRSIPRET
